# In patent US20230183742A1, “Viral Vector Production” (Oxford BioMedica (UK) Limited, priority 2020, published 2023):
# Read-outs that look alike come from different tables or passages of the source. Some results were stated once for a whole list of compounds, not compound by compound. For at least one compound, name, drawing or mass did not settle the structure.
# Test system: HEK293T cells
# Format: cell-based, human
SMILES,increase in vector titre above the corresponding HDAC inhibitor concentration alone,increase in vector titre above the corresponding HDAC inhibitor concentration alone (in combination with HDAC inhibitors)
"CCCCCCCCCCCCCC(=O)O[C@@H]1[C@@H](C)[C@@]2(O)[C@@H](C=C(CO)C[C@]3(O)C(=O)C(C)=C[C@@H]23)[C@@H]2C(C)(C)[C@]12OC(C)=O [PMA, Phorbol 12-myristate 13-acetate]",1.6- to 2.0 fold,
"CC(=O)O[C@@]12C[C@@H](C)[C@@]3(O)[C@@H](C=C(CO)C[C@]4(O)C(=O)C(C)=C[C@@H]34)[C@@H]1C2(C)C [prostratin, 12-Deoxyphorbol-13-acetate]",,1.6- to 2.0 fold
